According to US20140220690A1, “MAMMALIAN GENES INVOLVED IN INFECTION” (priority 2009, published 2014):
At least one structure is not confirmed: it was looked up by name or label, or the drawing left a doubt.

Experiments:
herpes simplex virus = assay type: cell-based; settings: RIE-1 cells, 18 h post herpes simplex infection, 100 nM

For `COc1ccc(C[C@@H]2NC[C@@H](O)[C@@H]2OC(C)=O)cc1` [ANISOMYCIN, [(2S,3R,4R)-4-hydroxy-2-[(4-methoxyphenyl)methyl]pyrrolidin-3-yl]acetate], the “expression of immediate early herpes simplex genes (beta-galactosidase reporter)” value (herpes simplex virus) was “did not express immediate early herpes simplex genes”, the “% Effectiveness” value (vaccinia virus) was 100% and the Effective (vaccinia virus) was “✓”. The “Effective [uM]” value (vaccinia virus) was 1 µM, the “infection of VERO and HELA cells” value (vaccinia virus) was “no infection” and the “inhibition of vaccinia virus infection (in words)” value (vaccinia virus) was “inhibited vaccinia virus infection”.
